Data as given in PubChem BioAssay AID1508588 (Peter MacCallum Cancer Centre, 2020)
Here is a random part of about 18,000 reagents. Of all reagents, 790 (4.4%) are marked active. 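Calls rest on a combination of fold-change classes in drug and vehicle arms, not all shown here.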 Unmarked entries are inactive.

Assay: 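Genome-wide search for knock-downs that heighten vemurafenib action in melanoma cells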 (primary screen)
System: human WM266.4 melanoma cells (BRAF V600 mutant)
Reagent: siRNA pool against human genes, 40 nM
Time to read-out: 96 h from transfection to read-out
Treatment: vemurafenib 300 nM (about IC25), added 48 h after transfection, for 48 h; comparison arm got DMSO vehicle only
Measurement: 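Cell gain (DAPI nuclei at end minus before drug, mean of two replicates) and medium lactate by absorbance per cell, both as ratio to non-targeting siRNA, also grouped into fold-change classes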
Scale: cell gain with vemurafenib: higher = more cell gain than with non-targeting siRNA; lactate per cell with vemurafenib: higher = more lactate made per cell
Call rule: 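Enhancement is called by pairing each knock-down's vehicle-arm and drug-arm fold-change classes for viability or glycolysis; which class combinations qualify is not given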
Meaning of the calls: active = enhances vemurafenib effect; inactive = no enhancement seen

| target | cell gain with vemurafenib | lactate per cell with vemurafenib |
| --- | --- | --- |
| ARHGEF10L (Rho guanine nucleotide exchange factor 10 like) | 0.77 | 0.44 |
| TRAF3IP3 (TRAF3 interacting protein 3) | 0.58 | 0.68 |
| GORASP2 (golgi reassembly stacking protein 2) | 0.67 | 1.15 |
| SKAP1 (src kinase associated phosphoprotein 1) | 0.42 | 1.09 |
| MRPS2 (mitochondrial ribosomal protein S2) | 0.28 | 2.13 |
| GRM2 (glutamate metabotropic receptor 2) | 0.05 | 0.73 |
| ADH4 (alcohol dehydrogenase 4 (class II), pi polypeptide) | 0.5 | 1.88 |
| RBM12B (RNA binding motif protein 12B) | 0.62 | 1.08 |
| KRT19 (keratin 19) | 0.48 | 0.82 |
| FCGR3A (Fc gamma receptor IIIa) | -0.08 | 0.68 |
| ZNF410 (zinc finger protein 410) | 0.8 | 0.73 |
| LZTS2 (leucine zipper tumor suppressor 2) | 0.13 | 2.63 |
| DMPK (DM1 protein kinase) | 0.17 | 1.34 |
| LAMP3 (lysosome associated membrane protein 3) | 0.48 | 1.25 |
| JMJD7-PLA2G4B (JMJD7-PLA2G4B readthrough) | 0.49 | 0.77 |
| OR5K1 (olfactory receptor family 5 subfamily K member 1) | 0.84 | 0.55 |
| GRP (gastrin releasing peptide) | 0.19 | 0.96 |
| POP5 (POP5 ribonuclease P/MRP subunit) | 0.91 | 0.94 |
| CASP9 (caspase 9) | 0.44 | 1.08 |
| SMG1 | 0.06 | 1.36 |
| CD80 (CD80 molecule) | 0.5 | 1.58 |
| COX14 (cytochrome c oxidase assembly factor COX14) | 0.36 | 0.86 |
| CEBPG (CCAAT enhancer binding protein gamma) | 0.6 | 0.92 |
| EP400 (E1A binding protein p400) | 0.33 | 0.3 |
| LINC03040 (long independently transcribed non-coding RNA 3040) | 0.63 | 1.17 |
| WDR73 (WD repeat domain 73) | 1.12 | 0.8 |
| OR11L1 (olfactory receptor family 11 subfamily L member 1) | 0.37 | 1.16 |
| TENT5B (terminal nucleotidyltransferase 5B) | 1.08 | 0.74 |
| FGF4 (fibroblast growth factor 4) | 0.4 | 0.63 |
| THOP1 (thimet oligopeptidase 1) | 0.64 | 0.7 |
| S100A5 (S100 calcium binding protein A5) | 0.19 | 1.07 |
| NR2C2 (nuclear receptor subfamily 2 group C member 2) | 0.26 | 0.52 |
| OAZ2 (ornithine decarboxylase antizyme 2) | 0.93 | 1.23 |
| IFNA16 (interferon alpha 16) | 0.41 | 0.76 |
| PRX (periaxin) | 0.57 | 0.4 |
| CETN2 (centrin 2) | 0.74 | 0.86 |
| DKK4 (dickkopf Wnt signaling pathway inhibitor 4) | 0.71 | 1.16 |
| THOC3 (THO complex subunit 3) | 0.4 | 1.46 |
| TREML2 (triggering receptor expressed on myeloid cells like 2) | 0.34 | 0.84 |
| CDK7 (cyclin dependent kinase 7) | 0.61 | 0.62 |
| CHRM2 (cholinergic receptor muscarinic 2) | 0.98 | 0.91 |
| GCAT (glycine C-acetyltransferase) | 0.54 | 1.1 |
| PLA2G4D (phospholipase A2 group IVD) | 0.36 | 1.27 |
| PLAG1 (PLAG1 zinc finger) | 0.59 | 1.12 |
| TSGA10 (testis specific 10) | 0.25 | 1.08 |
| TMEM119 (transmembrane protein 119) | 0.77 | 0.7 |
| ADCY4 (adenylate cyclase 4) | 0.77 | 0.9 |
| PGM1 (phosphoglucomutase 1) | 0.79 | 0.56 |
| PHEX (phosphate regulating endopeptidase X-linked) | 0.41 (active) | 0.3 |
| OR5A2 (olfactory receptor family 5 subfamily A member 2) | 0.57 | 0.62 |
| EIF2B1 (eukaryotic translation initiation factor 2B subunit alpha) | 0.41 | 0.2 |
| TENM2 (teneurin transmembrane protein 2) | 0.89 | 0.43 |
| PSPHP1 (phosphoserine phosphatase pseudogene 1) | 1.27 | 1.08 |
| RLIG1 (RNA 5'-phosphate and 3'-OH ligase 1) | 0.44 | 0.11 |
| KIFAP3 (kinesin associated protein 3) | 1.24 | 0.56 |
| HNF1A (HNF1 homeobox A) | 0.03 | 1.29 |
| F3 (coagulation factor III, tissue factor) | 0.63 | 1.51 |
| TGFB1 (transforming growth factor beta 1) | 0.36 | 1.2 |
| RAB27B (RAB27B, member RAS oncogene family) | 0.82 | 1.09 |
| CEACAM6 (CEA cell adhesion molecule 6) | 0.31 | 0.85 |
| CCDC88B (coiled-coil and HOOK domain protein 88B) | 0.46 | 1.02 |
| PHKA1 (phosphorylase kinase regulatory subunit alpha 1) | 1.1 | 0.7 |
| PNMT (phenylethanolamine N-methyltransferase) | 0.03 | 1.02 |
| POMP (proteasome maturation protein) | -0.12 | 1.96 |
| CWH43 (cell wall biogenesis 43 C-terminal homolog) | 0.29 | 1.6 |
| CAVIN2 (caveolae associated protein 2) | 0.52 | 1.2 |
| PRPH (peripherin) | 0.31 | 1.38 |
| AGFG1 (ArfGAP with FG repeats 1) | 0.18 (active) | 0.08 |
| GTF2A1 (general transcription factor IIA subunit 1) | 0.77 (active) | 0.64 |
| MYF5 (myogenic factor 5) | 0.25 | 1.73 |
| PPP1R16A (protein phosphatase 1 regulatory subunit 16A) | 0.72 | 1.5 |
| RPL26L1 (ribosomal protein L26 like 1) | 0.3 | 2.4 |
| SRY (sex determining region Y) | 0.84 | 0.64 |
| YDJC (YdjC chitooligosaccharide deacetylase homolog) | 0.57 | 0.84 |
| OR5AC2 (olfactory receptor family 5 subfamily AC member 2) | 0.92 | 0.66 |
| CUL7 (cullin 7) | 0.46 | 0.54 |
| EZHIP (EZH inhibitory protein) | 0.75 | 1.43 |
| PLA2G10 (phospholipase A2 group X) | 0.45 | 1.43 |
| ASB14 (ankyrin repeat and SOCS box containing 14) | 0.31 | 1.44 |
| BAGE (B melanoma antigen) | 0.83 | 0.6 |
| AQP2 (aquaporin 2) | 0.15 | 2.52 |
| ZNF585B (zinc finger protein 585B) | -0.05 (active) | -0.31 |
| ACO2 (aconitase 2) | 0.41 | 0.97 |
| SIN3B (SIN3 transcription regulator family member B) | 0.33 | 2.44 |
